Test results as given in ChEMBL document CHEMBL4513154, “CO-ADD screening of Jain University (India) compounds”.
This is one part of the list. Measured potencies and affinities stand elsewhere.

The compounds below were run on Acinetobacter baumannii. Conditions: Concentration 32 ug.mL-1; ASSAY_TEST Inhibition of Bacterial Growth; detection method Absorption (OD600); MEDIA CAMHB; plate type 384well; NBS; CORNING #3640; time 18 hr.

SMILES	Inhibition [%]
N#Cc1ccccc1-c1ccc(Cn2c(-c3cscn3)nc3ccccc32)cc1	-1.38
CC(C)c1ccc(Cn2c(-c3cscn3)nc3c(Cl)cccc32)cc1	2.59
N#Cc1ccccc1-c1ccc(Cn2c(-c3cscn3)nc3c(Cl)cccc32)cc1	6.28
Nc1nc(Nc2ccccc2)sc1-c1nc2ccccc2c(=O)n1-c1ccc(Cl)cc1	-0.07
N=C(Nc1ccccc1Cl)c1cscn1	12.72
CCc1ccc(Nc2nc(N)c(-c3nc4ccccc4c(=O)n3-c3ccc(Cl)cc3)s2)cc1	5.63
Nc1nc(Nc2ccc(Cl)cc2)sc1-c1nc2ccccc2c(=O)n1-c1ccccc1	-6.41
Clc1cccc2[nH]c(-c3cscn3)nc12	8.5
Clc1ccc2c(c1)nc(-c1cscn1)n2Cc1ccccc1	-10.04
CCc1ccc(-n2c(-c3sc(Nc4ccccc4)nc3N)nc3ccccc3c2=O)cc1	2.37
N#Cc1ccc(Cn2c(-c3cscn3)nc3c(Cl)cccc32)cc1	-7.1
N=C(Nc1ccccc1)c1cscn1	14.87
Fc1cc(Cn2c(-c3cscn3)nc3c(Cl)cccc32)cc(C(F)(F)F)c1	9.98
N#Cc1ccccc1-c1ccc(Cn2c(-c3cscn3)nc3ccc(Cl)cc32)cc1	-5.43
N#Cc1ccccc1-c1ccc(Cn2c(-c3cscn3)nc3cc(Cl)ccc32)cc1	-8.36
Nc1nc(Nc2ccccc2)sc1-c1nc2ccccc2c(=O)n1-c1ccccc1	6.57
O=[N+]([O-])c1ccc(Cn2c(-c3cscn3)nc3ccccc32)cc1	-2.78
CCc1ccc(Nc2nc(N)c(-c3nc4ccccc4c(=O)n3-c3ccccc3)s2)cc1	6.46
Clc1ccc2nc(-c3cscn3)n(Cc3ccccc3)c2c1	-5.33
Cn1c(-c2cscn2)nc2cc(Cl)ccc21	-5.79
Clc1cccc2c1nc(-c1cscn1)n2Cc1ccccc1	-8.66
Cn1c(-c2cscn2)nc2c(Cl)cccc21	-5.33
CCc1ccc(Nc2nc(N)c(-c3nc4ccccc4c(=O)n3-c3ccc(CC)cc3)s2)cc1	-1.27

Not a retest: entries from further up.
SMILES	Inhibition [%]
Clc1cccc2c1nc(-c1cscn1)n2Cc1ccccc1	-8.66
Cn1c(-c2cscn2)nc2c(Cl)cccc21	-5.33
